Measured values published in patent publication US20120171699A1 (Merck KGaA, published 2012).
No constants are given. Whether binding was seen depends on the method and setting. Some binding calls cover weakened binding; strength is not graded here.

By UniProt entry, the sequences of proteins in these tests, tags left out. Where a name states a change or a piece, a line headed by the entry shows the natural chain unless it says otherwise.
UniProt P08514: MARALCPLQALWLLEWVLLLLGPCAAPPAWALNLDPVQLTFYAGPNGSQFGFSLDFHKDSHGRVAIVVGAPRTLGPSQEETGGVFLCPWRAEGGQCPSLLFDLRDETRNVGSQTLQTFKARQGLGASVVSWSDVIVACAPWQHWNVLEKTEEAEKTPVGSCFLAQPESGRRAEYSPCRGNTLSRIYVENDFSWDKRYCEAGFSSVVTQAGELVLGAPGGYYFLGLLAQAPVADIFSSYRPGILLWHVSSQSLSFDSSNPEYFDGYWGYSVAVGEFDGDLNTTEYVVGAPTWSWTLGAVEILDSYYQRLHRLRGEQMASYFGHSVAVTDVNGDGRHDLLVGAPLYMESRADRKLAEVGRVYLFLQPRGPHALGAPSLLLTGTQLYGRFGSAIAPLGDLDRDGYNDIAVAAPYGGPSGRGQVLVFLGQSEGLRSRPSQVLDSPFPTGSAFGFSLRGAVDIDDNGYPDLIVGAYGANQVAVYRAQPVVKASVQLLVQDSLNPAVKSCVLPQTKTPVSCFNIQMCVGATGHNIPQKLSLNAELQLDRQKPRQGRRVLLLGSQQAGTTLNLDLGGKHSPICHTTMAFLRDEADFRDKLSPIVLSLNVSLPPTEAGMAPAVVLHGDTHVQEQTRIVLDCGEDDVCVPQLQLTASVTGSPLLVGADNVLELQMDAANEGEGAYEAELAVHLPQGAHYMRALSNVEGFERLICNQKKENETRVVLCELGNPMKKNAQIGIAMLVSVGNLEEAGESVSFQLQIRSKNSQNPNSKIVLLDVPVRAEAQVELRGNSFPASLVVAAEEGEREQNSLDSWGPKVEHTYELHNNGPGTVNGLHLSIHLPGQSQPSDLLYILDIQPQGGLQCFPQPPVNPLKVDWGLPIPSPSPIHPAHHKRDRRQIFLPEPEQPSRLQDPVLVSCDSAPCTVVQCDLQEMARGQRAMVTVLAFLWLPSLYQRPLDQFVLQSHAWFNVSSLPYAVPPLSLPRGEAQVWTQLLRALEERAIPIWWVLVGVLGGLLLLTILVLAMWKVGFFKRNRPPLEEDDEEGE

How the values were obtained:
[1] = biological target: integrin αiibβ3 on M21-gpiib melanoma cells (UniProt P08514); experiment: live cell flow cytometry on M21-gpiib cells
[2] = biological target: integrin αiibβ3 on M21-gpiib melanoma cells (UniProt P08514); experiment: live cell flow cytometry on M21-gpiib melanoma cells

B1: EM22703 (antibody, V domains shown)
VH: QSVKESEGGLFKPTDTLILTCTVSGFSLSSYGVSWVRQAPGNGLEYIGSISTTGITYYASWAKSRSTITRNTNLYTVTLKMTGLTAADTATYFCARGFPGHLRKPSDIWGPGTLVTVSA
VL: AQVLTQTPSSVSAAVGGTVSISCQSSESVYADIALSWFQQKPGQPPKLLIYGASTLASGVPSRFSGSGSGTEFTLTISDVQCDAAATYYCAGDYGAGTEPNLFGGGTEVVVSG
notes: Rabbit monoclonal; Hybridoma and recombinant forms are kept as one molecule
- binding [1]: binds
- binding [2]: binds
